Measured values reported in US10175256B2, “Compositions and methods utilizing lysophosphatidylcholine scaffolds” (National University Of Singapore, priority 2013, dated 2019).

Assay: Lipidomic analysis of brain, liver and heart phospholipids of WT and Mfsd2a KO mice (Table 2)
Assay type: in vivo
Conditions: MS, normalized to internal standard; for Amount of lipid species, brain-KO1 / Amount of lipid species, liver-KO1: Mfsd2a KO mouse 1; for Amount of lipid species, brain-KO2 / Amount of lipid species, liver-KO2: Mfsd2a KO mouse 2; for Amount of lipid species, brain-KO3 / Amount of lipid species, liver-KO3: Mfsd2a KO mouse 3; for Amount of lipid species, brain-KO4 / Amount of lipid species, liver-KO4: Mfsd2a KO mouse 4; for Amount of lipid species, brain-WT1 / Amount of lipid species, liver-WT1: wild-type mouse 1; for Amount of lipid species, brain-WT2 / Amount of lipid species, liver-WT2: wild-type mouse 2; for Amount of lipid species, brain-WT3 / Amount of lipid species, liver-WT3: wild-type mouse 3; for Amount of lipid species, brain-WT4 / Amount of lipid species, liver-WT4: wild-type mouse 4; for Amount of lipid species, brain-WT5 / Amount of lipid species, liver-WT5: wild-type mouse 5

CCCCCCCCCCCCCCCCCC(=O)OC[C@@H](O)COP(=O)([O-])OCC[N+](C)(C)C [LysoPC18:0]
Amount of lipid species, brain-KO1: 0.04573 mol percent in total phospholipid analysed
Amount of lipid species, brain-KO2: 0.04052 mol percent in total phospholipid analysed
Amount of lipid species, brain-KO3: 0.05017 mol percent in total phospholipid analysed
Amount of lipid species, brain-KO4: 0.0366 mol percent in total phospholipid analysed
Amount of lipid species, brain-WT1: 0.03098 mol percent in total phospholipid analysed
Amount of lipid species, brain-WT2: 0.03106 mol percent in total phospholipid analysed
Amount of lipid species, brain-WT3: 0.02968 mol percent in total phospholipid analysed
Amount of lipid species, brain-WT4: 0.03034 mol percent in total phospholipid analysed
Amount of lipid species, brain-WT5: 0.02994 mol percent in total phospholipid analysed
Amount of lipid species, liver-KO1: 0.2396 mol percent in total phospholipid analysed
Amount of lipid species, liver-KO2: 0.2338 mol percent in total phospholipid analysed
Amount of lipid species, liver-KO3: 0.2765 mol percent in total phospholipid analysed
Amount of lipid species, liver-KO4: 0.2041 mol percent in total phospholipid analysed
Amount of lipid species, liver-WT1: 0.1837 mol percent in total phospholipid analysed
Amount of lipid species, liver-WT2: 0.1637 mol percent in total phospholipid analysed
Amount of lipid species, liver-WT3: 0.1421 mol percent in total phospholipid analysed
Amount of lipid species, liver-WT4: 0.164 mol percent in total phospholipid analysed
Amount of lipid species, liver-WT5: 0.1584 mol percent in total phospholipid analysed

CCCCCCCCCCCCCCCCCCOC[C@@H](O)COP(=O)([O-])OCC[N+](C)(C)C [LysoPC18:0e]
Amount of lipid species, brain-KO1: 0.001689 mol percent in total phospholipid analysed
Amount of lipid species, brain-KO2: 0.001518 mol percent in total phospholipid analysed
Amount of lipid species, brain-KO3: 0.001554 mol percent in total phospholipid analysed
Amount of lipid species, brain-KO4: 0.00147 mol percent in total phospholipid analysed
Amount of lipid species, brain-WT1: 0.001262 mol percent in total phospholipid analysed
Amount of lipid species, brain-WT2: 0.001318 mol percent in total phospholipid analysed
Amount of lipid species, brain-WT3: 0.001259 mol percent in total phospholipid analysed
Amount of lipid species, brain-WT4: 0.001151 mol percent in total phospholipid analysed
Amount of lipid species, brain-WT5: 0.001118 mol percent in total phospholipid analysed
Amount of lipid species, liver-KO1: 0.006998 mol percent in total phospholipid analysed
Amount of lipid species, liver-KO2: 0.005765 mol percent in total phospholipid analysed
Amount of lipid species, liver-KO3: 0.007272 mol percent in total phospholipid analysed
Amount of lipid species, liver-KO4: 0.005924 mol percent in total phospholipid analysed
Amount of lipid species, liver-WT1: 0.005996 mol percent in total phospholipid analysed
Amount of lipid species, liver-WT2: 0.005175 mol percent in total phospholipid analysed
Amount of lipid species, liver-WT3: 0.004757 mol percent in total phospholipid analysed
Amount of lipid species, liver-WT4: 0.005185 mol percent in total phospholipid analysed
Amount of lipid species, liver-WT5: 0.006143 mol percent in total phospholipid analysed

CCCCCCCCCCCCCCCC(=O)OC[C@@H](O)COP(=O)(O)OCCN [LysoPE16:0]
Amount of lipid species, brain-KO1: 0.2335 mol percent in total phospholipid analysed
Amount of lipid species, brain-KO2: 0.13 mol percent in total phospholipid analysed
Amount of lipid species, brain-KO3: 0.071 mol percent in total phospholipid analysed
Amount of lipid species, brain-KO4: 0.1366 mol percent in total phospholipid analysed
Amount of lipid species, brain-WT1: 0.1654 mol percent in total phospholipid analysed
Amount of lipid species, brain-WT2: 0.2201 mol percent in total phospholipid analysed
Amount of lipid species, brain-WT3: 0.1381 mol percent in total phospholipid analysed
Amount of lipid species, brain-WT4: 0.1322 mol percent in total phospholipid analysed
Amount of lipid species, brain-WT5: 0.1237 mol percent in total phospholipid analysed

CCCCCCCCCCCCCCCCCC(=O)OC[C@@H](O)COP(=O)(O)OCCN [LysoPE18:0]
Amount of lipid species, brain-KO1: 0.3933 mol percent in total phospholipid analysed
Amount of lipid species, brain-KO2: 0.4911 mol percent in total phospholipid analysed
Amount of lipid species, brain-KO3: 0.5088 mol percent in total phospholipid analysed
Amount of lipid species, brain-KO4: 0.3963 mol percent in total phospholipid analysed
Amount of lipid species, brain-WT1: 0.3859 mol percent in total phospholipid analysed
Amount of lipid species, brain-WT2: 0.4891 mol percent in total phospholipid analysed
Amount of lipid species, brain-WT3: 0.3177 mol percent in total phospholipid analysed
Amount of lipid species, brain-WT4: 0.3174 mol percent in total phospholipid analysed
Amount of lipid species, brain-WT5: 0.4124 mol percent in total phospholipid analysed

CCCCCCCCCCCCCCCC/C=C\OC[C@@H](O)COP(=O)(O)OCCN [LysoPE18:0p]
Amount of lipid species, brain-KO1: 0.6022 mol percent in total phospholipid analysed
Amount of lipid species, brain-KO2: 0.7223 mol percent in total phospholipid analysed
Amount of lipid species, brain-KO3: 0.71 mol percent in total phospholipid analysed
Amount of lipid species, brain-KO4: 0.6559 mol percent in total phospholipid analysed
Amount of lipid species, brain-WT1: 0.8958 mol percent in total phospholipid analysed
Amount of lipid species, brain-WT2: 0.7214 mol percent in total phospholipid analysed
Amount of lipid species, brain-WT3: 0.898 mol percent in total phospholipid analysed
Amount of lipid species, brain-WT4: 0.9654 mol percent in total phospholipid analysed
Amount of lipid species, brain-WT5: 1.141 mol percent in total phospholipid analysed

PE38:5
Amount of lipid species, brain-KO1: 1.106 mol percent in total phospholipid analysed
Amount of lipid species, brain-KO2: 1.079 mol percent in total phospholipid analysed
Amount of lipid species, brain-KO3: 1.152 mol percent in total phospholipid analysed
Amount of lipid species, brain-KO4: 0.9839 mol percent in total phospholipid analysed
Amount of lipid species, brain-WT1: 0.8085 mol percent in total phospholipid analysed
Amount of lipid species, brain-WT2: 0.8641 mol percent in total phospholipid analysed
Amount of lipid species, brain-WT3: 0.9578 mol percent in total phospholipid analysed
Amount of lipid species, brain-WT4: 1.076 mol percent in total phospholipid analysed
Amount of lipid species, brain-WT5: 0.999 mol percent in total phospholipid analysed
